Data as given in publication PMC10403143.
These are yes or no findings as the source states them, for the method shown. In cells and extracts the contact can be indirect. Some results given as binding are weak or reduced against the parent protein; the word gives no strength.

Amino acid sequences for entries named in this document (tags omitted). Residues count along the entry.
UniProt O08852, residues 24-4293: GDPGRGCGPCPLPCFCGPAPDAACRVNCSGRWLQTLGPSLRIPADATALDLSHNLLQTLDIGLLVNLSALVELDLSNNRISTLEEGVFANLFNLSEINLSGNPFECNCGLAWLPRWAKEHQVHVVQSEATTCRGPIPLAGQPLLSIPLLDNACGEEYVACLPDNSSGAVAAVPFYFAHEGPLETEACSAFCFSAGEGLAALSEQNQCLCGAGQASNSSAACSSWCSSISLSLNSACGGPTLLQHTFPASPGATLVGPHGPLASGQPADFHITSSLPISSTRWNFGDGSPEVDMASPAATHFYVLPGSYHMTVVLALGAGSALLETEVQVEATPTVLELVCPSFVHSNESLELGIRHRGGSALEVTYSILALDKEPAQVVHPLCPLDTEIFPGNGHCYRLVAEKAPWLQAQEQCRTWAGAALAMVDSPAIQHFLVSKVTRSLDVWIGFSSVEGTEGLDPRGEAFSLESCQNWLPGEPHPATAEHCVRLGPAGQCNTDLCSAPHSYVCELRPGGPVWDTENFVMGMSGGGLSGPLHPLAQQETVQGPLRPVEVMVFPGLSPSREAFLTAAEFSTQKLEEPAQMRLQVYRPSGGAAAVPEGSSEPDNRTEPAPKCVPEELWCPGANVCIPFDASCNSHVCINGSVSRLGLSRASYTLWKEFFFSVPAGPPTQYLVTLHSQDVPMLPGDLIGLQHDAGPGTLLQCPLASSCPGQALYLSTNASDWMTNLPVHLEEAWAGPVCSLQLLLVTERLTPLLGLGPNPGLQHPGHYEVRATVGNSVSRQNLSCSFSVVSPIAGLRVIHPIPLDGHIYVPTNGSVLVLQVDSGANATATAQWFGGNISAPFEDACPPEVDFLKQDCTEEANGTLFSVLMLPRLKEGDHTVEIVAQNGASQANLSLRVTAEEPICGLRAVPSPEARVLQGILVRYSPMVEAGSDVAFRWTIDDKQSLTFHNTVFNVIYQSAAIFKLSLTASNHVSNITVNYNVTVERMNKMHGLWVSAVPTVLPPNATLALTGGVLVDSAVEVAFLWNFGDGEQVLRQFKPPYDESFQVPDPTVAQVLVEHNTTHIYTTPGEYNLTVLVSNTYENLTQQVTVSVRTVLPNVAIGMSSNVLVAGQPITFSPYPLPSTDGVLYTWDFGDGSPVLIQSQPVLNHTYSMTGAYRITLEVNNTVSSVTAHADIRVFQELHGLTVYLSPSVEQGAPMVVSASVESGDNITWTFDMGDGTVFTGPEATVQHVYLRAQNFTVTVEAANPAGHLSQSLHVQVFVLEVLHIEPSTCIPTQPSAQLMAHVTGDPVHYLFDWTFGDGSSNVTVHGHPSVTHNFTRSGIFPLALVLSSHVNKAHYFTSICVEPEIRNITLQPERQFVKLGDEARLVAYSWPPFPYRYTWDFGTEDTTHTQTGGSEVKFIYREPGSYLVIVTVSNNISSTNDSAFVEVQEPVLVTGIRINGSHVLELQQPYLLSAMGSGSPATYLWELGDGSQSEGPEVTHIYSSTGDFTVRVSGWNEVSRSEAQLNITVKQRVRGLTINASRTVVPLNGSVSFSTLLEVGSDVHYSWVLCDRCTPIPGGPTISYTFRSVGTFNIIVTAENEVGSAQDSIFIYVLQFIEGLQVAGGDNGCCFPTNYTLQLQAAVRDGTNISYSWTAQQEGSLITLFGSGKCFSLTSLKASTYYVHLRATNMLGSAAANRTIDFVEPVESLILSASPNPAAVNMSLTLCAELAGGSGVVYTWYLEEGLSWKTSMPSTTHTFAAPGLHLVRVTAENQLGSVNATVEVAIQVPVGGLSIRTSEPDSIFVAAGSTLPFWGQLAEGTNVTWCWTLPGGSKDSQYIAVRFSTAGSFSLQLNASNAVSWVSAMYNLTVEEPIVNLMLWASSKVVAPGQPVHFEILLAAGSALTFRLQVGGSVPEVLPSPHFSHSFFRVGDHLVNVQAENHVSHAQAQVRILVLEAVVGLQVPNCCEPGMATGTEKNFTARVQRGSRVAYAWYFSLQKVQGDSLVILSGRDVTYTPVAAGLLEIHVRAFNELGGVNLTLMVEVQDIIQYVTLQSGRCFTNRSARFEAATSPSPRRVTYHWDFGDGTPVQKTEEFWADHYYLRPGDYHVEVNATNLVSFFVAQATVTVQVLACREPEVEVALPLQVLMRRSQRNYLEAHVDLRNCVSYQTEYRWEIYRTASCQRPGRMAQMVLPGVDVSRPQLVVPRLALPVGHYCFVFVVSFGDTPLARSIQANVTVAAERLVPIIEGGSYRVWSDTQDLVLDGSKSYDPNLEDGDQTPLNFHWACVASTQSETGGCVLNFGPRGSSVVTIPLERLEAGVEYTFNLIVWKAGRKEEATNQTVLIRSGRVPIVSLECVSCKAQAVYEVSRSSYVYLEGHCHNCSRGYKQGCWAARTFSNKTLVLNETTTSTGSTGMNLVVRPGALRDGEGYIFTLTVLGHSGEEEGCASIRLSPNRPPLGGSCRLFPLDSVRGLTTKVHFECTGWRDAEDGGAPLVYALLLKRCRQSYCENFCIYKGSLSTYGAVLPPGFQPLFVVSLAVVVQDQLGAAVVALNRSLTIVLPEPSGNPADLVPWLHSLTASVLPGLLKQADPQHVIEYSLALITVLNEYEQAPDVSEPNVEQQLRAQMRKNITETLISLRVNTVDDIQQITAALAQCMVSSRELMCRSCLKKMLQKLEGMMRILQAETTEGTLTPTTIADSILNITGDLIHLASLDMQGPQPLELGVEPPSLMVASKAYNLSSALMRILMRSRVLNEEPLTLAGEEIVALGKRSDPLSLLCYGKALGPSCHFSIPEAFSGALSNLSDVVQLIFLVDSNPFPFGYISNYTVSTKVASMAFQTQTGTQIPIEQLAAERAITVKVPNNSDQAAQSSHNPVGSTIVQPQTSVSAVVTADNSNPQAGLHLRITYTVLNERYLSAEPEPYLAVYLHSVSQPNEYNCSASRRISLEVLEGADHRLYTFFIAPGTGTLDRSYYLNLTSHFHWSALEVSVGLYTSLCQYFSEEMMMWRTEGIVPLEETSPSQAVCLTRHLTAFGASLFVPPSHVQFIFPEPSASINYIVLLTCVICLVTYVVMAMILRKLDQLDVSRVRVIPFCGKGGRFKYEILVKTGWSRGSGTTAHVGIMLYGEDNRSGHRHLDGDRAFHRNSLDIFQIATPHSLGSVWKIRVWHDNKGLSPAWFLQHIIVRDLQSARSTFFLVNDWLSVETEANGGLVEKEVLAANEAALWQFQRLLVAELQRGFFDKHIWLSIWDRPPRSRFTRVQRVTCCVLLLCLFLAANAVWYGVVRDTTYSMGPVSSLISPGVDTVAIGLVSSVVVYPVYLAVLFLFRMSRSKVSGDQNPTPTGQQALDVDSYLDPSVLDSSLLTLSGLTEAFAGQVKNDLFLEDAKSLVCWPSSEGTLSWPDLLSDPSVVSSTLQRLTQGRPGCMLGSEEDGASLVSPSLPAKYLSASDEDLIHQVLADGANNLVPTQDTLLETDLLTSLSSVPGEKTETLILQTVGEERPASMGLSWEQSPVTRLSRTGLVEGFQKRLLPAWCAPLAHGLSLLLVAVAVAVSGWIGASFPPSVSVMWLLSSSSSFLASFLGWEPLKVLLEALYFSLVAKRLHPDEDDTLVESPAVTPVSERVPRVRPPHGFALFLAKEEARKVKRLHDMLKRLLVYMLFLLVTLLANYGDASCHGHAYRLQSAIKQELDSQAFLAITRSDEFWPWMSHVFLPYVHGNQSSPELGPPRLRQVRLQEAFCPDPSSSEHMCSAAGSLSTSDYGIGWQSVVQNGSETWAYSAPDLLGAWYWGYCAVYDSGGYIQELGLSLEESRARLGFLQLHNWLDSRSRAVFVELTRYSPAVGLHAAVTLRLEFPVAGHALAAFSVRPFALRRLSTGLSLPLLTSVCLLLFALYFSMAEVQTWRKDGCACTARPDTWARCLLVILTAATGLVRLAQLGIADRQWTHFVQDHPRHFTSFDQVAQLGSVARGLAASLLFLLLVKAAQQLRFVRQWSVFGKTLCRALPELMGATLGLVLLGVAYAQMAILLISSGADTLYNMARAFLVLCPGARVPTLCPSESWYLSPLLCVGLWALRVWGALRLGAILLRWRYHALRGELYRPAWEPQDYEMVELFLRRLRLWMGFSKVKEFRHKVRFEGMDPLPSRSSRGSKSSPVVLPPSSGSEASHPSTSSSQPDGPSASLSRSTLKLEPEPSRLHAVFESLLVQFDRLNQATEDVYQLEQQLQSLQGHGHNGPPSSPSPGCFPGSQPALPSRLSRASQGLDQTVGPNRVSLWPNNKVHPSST

Target: Polycystin-1 with eGFP and three HA tags at its C-terminus, from the Pkd1^eGFP knock-in allele (mouse) (UniProt O08852)
Experiment: co-IP; Mouse tissue lysate (1% Triton X-100, 150 mM NaCl, 50 mM Tris HCl pH 8.0, 0.25% sodium deoxycholate). PC1-eGFP precipitated with anti-GFP nanobody magnetic agarose beads (GFP-trap), 1 hr at 4°C, with quick gentle washes; more stringent washing for one P2 kidney panel. Immunoblot with anti-PC2 or anti-NNT. Wild type mice without the tag served as control.

| binding | Binder |
| --- | --- |
| binds | Polycystin-2 (protein, UniProt O35245 1-966) MVNSRRVQPQPPGDAGRSPAPRASGPGRLVAGGAGLAVPGGLGEQRGLEIEMERIRQAAARDPPAGASASPSPPLSSCSRQAWSRDNPGFEAEEDDDDDEVEGEEGGMVVEMDVEWRPGSRRSASSSAVSSVGARGRGLGSYRGAAHLSGRRRRLEDQGAQCPSPAGGGDPLHRHLPLEGQPPRVAWAERLVRGLRGLWGTRLMEESNANREKYLKSVLRELVTYLFFLVVLCILTYGMMSSNVYYYTRTLSQLFIDTPVSKTEKTNFKTLSSMEDFWKFTEGSFLDGLYWKAQTSNHTQADNRSFIFYENLLLGVPRLRQLRVRNGSCSIPQDLRDEIKECYDVYSVSSEDRAPFGPRNGTAWMYTSEKELNGSSHWGIIASYSGAGYYLDLSRTREETAAQLAGLRRNFWLDRGTRAAFIDFSVYNANINLFCVVRLLAEFPATGGVVPSWQFQPVKLIRYVTAFDFFLAACEIIFCFFIIYYVVEEILEIRIHRLSYFRSFWNCLDVVIVVLSVVAMVINIYRMSNAEGLLQFLEDQNSFPNFEHVAYWQIQFNNISAVMVFLVWIKLFKFINFNRTMSQLSTTMSRCAKDLFGFTIMFSIIFLAYAQLAYLVFGTQVDDFSTFQECIFTQFRIILGDINFAEIEEANRVLGPLYFTTFVFFMFFILLNMFLAIINDSYSEVKSDLAQQKAEMELSDLIRKGCQKALVKLKLKRNTVDAISESLRQGGGKLNFDELRQDLKGKGHTDAEIEAIFTKYDQDGDQELTEREHQQMRDDLEKEREDLDLEHSSLPRPMSSRSFPRSLDDSEEEDDEDSGHSSRRRGSISSGVSYEEFQVLVRRVDRMEHSIGSIVSKIDAVIVKLEIMERAKLKRREVLGRLLDGVAEDARLGRDSEIHREQMERLVREELERWESDDAASQTGHGVSTQVGLGGQPHPRNPRPPSSQSAEGLEGGGGNGSANVHA |
| binds | nicotinamide nucleotide transhydrogenase (protein, UniProt Q61941 44-1086) CKSPVKPGIPYKQLTVGVPKEIFQNEKRVALSPAGVQALVKQGFNVVVESGAGEASKFPDDLYRAAGAQIQGMKEVLASDLVVKVRAPMVNPTLGAHEADFLKPSGTLISFIYPAQNPDLLNKLSERKTTVLAMDQVPRVTIAQGYDALSSMANISGYKAVVLAANHFGRFFTGQITAAGKVPPAKILIVGGGVAGLASAGAAKSMGAVVRGFDTRAAALEQFKSLGAEPLEVDLKESGEGQGGYAKEMSKEFIEAEMKLFAQQCKEVDILISTALIPGKKAPVLFSKEMIESMKEGSVVVDLAAEAGGNFETTKPGELYVHKGITHIGYTDLPSRMATQASTLYSNNITKLLKAISPDKDNFHFEVKDDFDFGTMSHVIRGTVVMKDGKVIFPAPTPKNIPEEAPVKPKTVAELEAEKAGTVSMYTKTLTTASVYSAGLTGMLGLGIVAPNVAFSQMVTTFGLAGIIGYHTVWGVTPALHSPLMSVTNAISGLTAVGGLALMGGHFYPSTTSQSLAALATFISSVNIAGGFLVTQRMLDMFKRPTDPPEYNYLYLLPGGTFVGGYLAALYGGYNIEEIMYLGSGLCCVGALGGLSTQGTARLGNALGMIGVAGGLAATLGGLKPDPQLLAQMSGAMAMGGTIGLTIAKRIQISDLPQLVAAFHSLVGLAAVLTCMAEYIVEYPHFAMDATSNFTKIVAYLGTYIGGVTFSGSLVAYGKLQGILKSAPLLLPGRHALNAGLLAASVGGIIPFMADPSFTTGITCLGSVSGLSTLMGVTLTAAIGGADMPVVITVLNSYSGWALCAEGFLLNNNLLTIVGALIGSSGAILSYIMCVAMNRSLANVILGGYGTTSTAGGKPMEISGTHTEINLDNAVEMIREANSIVITPGYGLCAAKAQYPIADLVKMLTEQGKKVRFGIHPVAGRMPGQLNVLLAEAGVPYDIVLEMDEINSDFPDTDLVLVIGANDTVNSAAQEDPNSIIAGMPVLEVWKSKQVIVMKRSLGVGYAAVDNPIFYKPNTAMLLGDAKKTCDALQAKVRESYQK |
